Values from PubChem BioAssay AID1259254 (NCATS, 2017).

Test: 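Finding genes that stop cells copying their DNA twice in one cycle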 (primary screen)
Cells: human HCT116 colorectal cancer cells
Knock-down reagent: single siRNA against human genes
Timing: 3 days
Detection: 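Nuclei stained with Hoechst and imaged; cell-cycle phase assigned by DNA content; G2 share scaled per plate, non-targeting siRNA 0%, GMNN siRNA 100%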
Scale: G2 robust z-score: higher = more G2 cells, more excess DNA replication
Rule for the call: 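An siRNA counts as active if its G2 robust z-score lies at least 5 MADs above the screen median; here such calls match roughly 38% of GMNN control or more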
This is a random part of about 59,000 reagents tested. Of all reagents, about 1,550 (2.6%) got an active call. 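G2 share is only a proxy for re-replication; each gene was hit by three separate siRNAs, and active genes were retested.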 Entries without a mark were called inactive. The numbers tell different reagents against one gene apart. Not all columns of the deposit are shown. No sequences are given here. Not stated in the record: the amount of reagent.

The first 4 records, to show the layout:
| gene symbol | siRNA no. | G2 robust z-score |
| --- | --- | --- |
| CFAP54 | 1 | 0.232 |
| CFAP54 | 2 | 0.763 |
| CFAP54 | 3 | -0.147 |
| CFAP54 | 4 | -0.429 |

Results, from the start:
| gene symbol | siRNA no. | G2 robust z-score |
| --- | --- | --- |
| CFAP54 | 1 | 0.232 |
| CFAP54 | 2 | 0.763 |
| CFAP54 | 3 | -0.147 |
| CFAP54 | 4 | -0.429 |
| CFAP54 | 5 | 0.237 |
| CFAP54 | 6 | -0.137 |
| CFAP54 | 7 | -0.0648 |
| CFAP54 | 8 | 0.655 |
| CFAP54 | 9 | 0.81 |
| ZNF568 | 1 | -0.481 |
| ZNF568 | 2 | 0.08 |
| ZNF568 | 3 | -0.397 |
| H4C16 | 1 | -0.584 |
| H4C16 | 2 | -0.398 |
| H4C16 | 3 | -0.198 |
| GCM2 | 1 | 1.32 |
| GCM2 | 2 | 1.35 |
| GCM2 | 3 | -0.919 |
| NR0B1 | 1 | -0.352 |
| NR0B1 | 2 | 0.272 |
| NR0B1 | 3 | 0.858 |
| TGFB2 | 1 | 7.28 (active) |
| TGFB2 | 2 | 0.678 |
| TGFB2 | 3 | 0.345 |
| FST | 1 | -0.417 |
| FST | 2 | 0.836 |
| FST | 3 | -0.716 |
| KCNJ14 | 1 | -0.715 |
| KCNJ14 | 2 | -1.13 |
| KCNJ14 | 3 | -0.306 |
| HMGN2P18 | 1 | -0.447 |
| HMGN2P18 | 2 | 1.07 |
| HMGN2P18 | 3 | -0.752 |
| CDH24 | 1 | -0.716 |
| CDH24 | 2 | -1.35 |
| CDH24 | 3 | -1.85 |
| MRPL15 | 1 | -0.669 |
| MRPL15 | 2 | 0.838 |
| MRPL15 | 3 | 1.32 |
| HAAO | 1 | -0.0518 |
| HAAO | 2 | 1.35 |
| HAAO | 3 | 1.29 |
| PRRX1 | 1 | -0.777 |
| PRRX1 | 2 | 0.107 |
| PRRX1 | 3 | -0.0309 |
| FAM180B | 1 | -0.607 |
| FAM180B | 2 | 1.35 |
| FAM180B | 3 | -0.707 |
